# From publication PMC6985365
# Chains of the proteins cited; added tags and fusions are not shown.
# UniProt Q8N884: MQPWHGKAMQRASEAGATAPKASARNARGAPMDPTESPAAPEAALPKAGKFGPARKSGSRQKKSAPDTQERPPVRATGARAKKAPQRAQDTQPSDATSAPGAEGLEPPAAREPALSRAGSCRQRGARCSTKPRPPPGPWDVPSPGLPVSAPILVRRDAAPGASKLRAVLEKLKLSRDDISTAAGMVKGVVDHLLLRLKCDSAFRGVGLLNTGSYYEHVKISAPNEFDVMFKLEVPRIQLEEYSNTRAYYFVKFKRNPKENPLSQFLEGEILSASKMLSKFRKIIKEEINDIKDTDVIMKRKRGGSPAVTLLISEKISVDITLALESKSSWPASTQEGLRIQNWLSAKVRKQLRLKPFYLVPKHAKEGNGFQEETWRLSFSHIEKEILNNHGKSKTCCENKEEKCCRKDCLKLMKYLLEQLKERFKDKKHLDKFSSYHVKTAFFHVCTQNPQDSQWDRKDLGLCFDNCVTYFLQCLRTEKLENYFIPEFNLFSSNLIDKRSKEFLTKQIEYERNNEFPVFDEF
# UniProt Q04206: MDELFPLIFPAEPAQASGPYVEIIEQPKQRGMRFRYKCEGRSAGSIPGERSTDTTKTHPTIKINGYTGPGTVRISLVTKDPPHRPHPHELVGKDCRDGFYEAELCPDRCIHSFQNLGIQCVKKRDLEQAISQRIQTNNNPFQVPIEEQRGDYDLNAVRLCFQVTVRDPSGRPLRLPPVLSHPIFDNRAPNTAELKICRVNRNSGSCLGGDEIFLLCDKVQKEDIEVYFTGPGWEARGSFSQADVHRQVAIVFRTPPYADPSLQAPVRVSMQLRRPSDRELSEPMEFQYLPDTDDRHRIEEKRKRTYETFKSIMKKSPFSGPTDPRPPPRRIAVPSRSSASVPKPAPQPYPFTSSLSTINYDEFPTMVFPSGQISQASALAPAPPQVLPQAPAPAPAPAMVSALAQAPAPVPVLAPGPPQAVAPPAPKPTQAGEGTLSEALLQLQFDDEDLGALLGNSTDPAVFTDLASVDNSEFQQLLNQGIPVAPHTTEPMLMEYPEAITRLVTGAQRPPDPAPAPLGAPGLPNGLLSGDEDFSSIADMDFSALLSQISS
# UniProt Q9Y6K9: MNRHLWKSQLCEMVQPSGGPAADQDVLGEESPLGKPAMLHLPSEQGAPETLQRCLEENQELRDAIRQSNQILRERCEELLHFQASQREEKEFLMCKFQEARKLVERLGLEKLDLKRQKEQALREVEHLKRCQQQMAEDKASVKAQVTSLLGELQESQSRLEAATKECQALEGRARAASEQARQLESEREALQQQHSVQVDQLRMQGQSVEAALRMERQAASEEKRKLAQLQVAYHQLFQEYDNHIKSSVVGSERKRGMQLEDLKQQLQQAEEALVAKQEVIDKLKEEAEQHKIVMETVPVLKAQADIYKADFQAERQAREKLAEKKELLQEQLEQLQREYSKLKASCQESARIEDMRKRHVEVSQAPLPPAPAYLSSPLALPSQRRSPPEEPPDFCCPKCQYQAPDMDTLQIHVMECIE
# UniProt Q9UKB1: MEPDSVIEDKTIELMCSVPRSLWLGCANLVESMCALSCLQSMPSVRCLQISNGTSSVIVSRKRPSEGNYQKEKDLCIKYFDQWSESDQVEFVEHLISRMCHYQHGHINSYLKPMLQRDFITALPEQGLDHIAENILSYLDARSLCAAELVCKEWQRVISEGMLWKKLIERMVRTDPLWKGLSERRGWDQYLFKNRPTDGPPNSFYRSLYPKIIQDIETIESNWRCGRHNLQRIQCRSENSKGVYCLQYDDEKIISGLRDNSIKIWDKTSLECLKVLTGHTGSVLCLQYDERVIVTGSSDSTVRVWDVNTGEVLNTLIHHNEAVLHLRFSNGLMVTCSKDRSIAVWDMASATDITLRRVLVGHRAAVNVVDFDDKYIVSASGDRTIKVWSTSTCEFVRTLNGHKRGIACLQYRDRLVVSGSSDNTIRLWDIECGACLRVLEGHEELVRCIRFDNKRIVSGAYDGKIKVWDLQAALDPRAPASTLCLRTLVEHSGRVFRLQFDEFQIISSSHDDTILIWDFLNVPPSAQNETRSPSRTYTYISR
# No constants are given. Whether binding was seen depends on the method and setting. For part of these data: In cells and extracts the contact can be indirect. Some entries that bind do so weakly or less than the wild type. For part of these data: Sequences can lack the tags named with a protein.
# T1: TAP-tagged SPSB1-ΔSOCS (human) (UniProt Q96BD6)
# T1 sequence: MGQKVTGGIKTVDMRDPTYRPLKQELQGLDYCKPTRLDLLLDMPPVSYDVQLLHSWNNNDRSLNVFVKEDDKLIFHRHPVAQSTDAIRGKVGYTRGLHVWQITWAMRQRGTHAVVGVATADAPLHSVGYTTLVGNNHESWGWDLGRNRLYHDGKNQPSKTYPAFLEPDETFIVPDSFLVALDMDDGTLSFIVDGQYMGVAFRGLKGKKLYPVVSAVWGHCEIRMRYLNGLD
# T2: TAP-tagged full-length SPSB1 (human) (UniProt Q96BD6)
# T2 sequence: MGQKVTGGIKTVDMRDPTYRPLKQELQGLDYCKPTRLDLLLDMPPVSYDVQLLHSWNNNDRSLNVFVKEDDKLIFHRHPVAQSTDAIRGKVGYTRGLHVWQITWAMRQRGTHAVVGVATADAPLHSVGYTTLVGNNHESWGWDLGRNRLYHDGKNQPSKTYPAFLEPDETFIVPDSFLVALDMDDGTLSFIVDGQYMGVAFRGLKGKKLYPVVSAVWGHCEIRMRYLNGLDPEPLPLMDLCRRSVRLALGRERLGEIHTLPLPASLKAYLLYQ
# T3: FLAG-SPSB1 (SPRY and SOCS-box containing protein 1) (human) (UniProt Q96BD6)
# T3 sequence: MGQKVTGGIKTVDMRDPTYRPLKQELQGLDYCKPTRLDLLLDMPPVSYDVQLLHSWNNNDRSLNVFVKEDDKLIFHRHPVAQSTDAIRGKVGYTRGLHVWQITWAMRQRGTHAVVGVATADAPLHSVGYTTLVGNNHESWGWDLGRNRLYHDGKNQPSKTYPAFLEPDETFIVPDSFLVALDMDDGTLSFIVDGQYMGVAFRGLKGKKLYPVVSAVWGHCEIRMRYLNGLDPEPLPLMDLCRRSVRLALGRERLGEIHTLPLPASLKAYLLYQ
# Key:
# TAP-tagged cGAS = TAP-tagged cGAS (UniProt Q8N884); test: pull-down; HEK293T transfected with HA-p65 and TAP-tagged bait; lysis in IP buffer; Streptavidin beads 16 h at 4°C, 3 washes, elution in Laemmli buffer; immunoblot against tags
# [1] = molecular target: T1, TAP-tagged SPSB1-ΔSOCS (human); test: as above
# [2] = molecular target: T2, TAP-tagged full-length SPSB1 (human); test: as above
# [3] = molecular target: T3, FLAG-SPSB1 (SPRY and SOCS-box containing protein 1) (human); test: LUMIER (luminescence-based mammalian interactome mapping); HEK293T co-transfected with FLAG-SPSB1 and Rluc fusions for 24 h; lysis in IP buffer (20 mM Tris-HCl pH7.4, 150 mM NaCl, 10 mM CaCl2, 0.1% Triton-X, 10% glycerol); affinity purification with streptavidin beads 6 h at 4°C, elution with biotin; Rluc activity as binding fold over Rluc-only control
binding [3],Molecule,further results
–,HA-tagged p65 (from UniProt Q04206 1-551),binding (TAP-tagged cGAS): no binding; binding [1]: binds; binding [2]: binds
no binding,Rluc fusion of IKK-γ (from UniProt Q9Y6K9 1-419),–
no binding,Rluc fusion of β-TrCP (β-transducin repeat containing protein) (from UniProt Q9UKB1 1-542),–
no binding,"Rluc fusion of TAB-3 (protein, UniProt Q8N5C8 1-712) MAQSSPQLDIQVLHDLRQRFPEIPEGVVSQCMLQNNNNLEACCRALSQESSKYLYMEYHSPDDNRMNRNRLLHINLGIHSPSSYHPGDGAQLNGGRTLVHSSSDGHIDPQHAAGKQLICLVQEPHSAPAVVAATPNYNPFFMNEQNRSAATPPSQPPQQPSSMQTGMNPSAMQGPSPPPPPPSYMHIPRYSTNPITVTVSQNLPSGQTVPRALQILPQIPSNLYGSPGSIYIRQTSQSSSGRQTPQSTPWQSSPQGPVPHYSQRPLPVYPHQQNYQPSQYSPKQQQIPQSAYHSPPPSQCPSPFSSPQHQVQPSQLGHIFMPPSPSTTPPHPYQQGPPSYQKQGSHSVAYLPYTASSLSKGSMKKIEITVEPSQRPGTAINRSPSPISNQPSPRNQHSLYTATTPPSSSPSRGISSQPKPPFSVNPVYITYTQPTGPSCTPSPSPRVIPNPTTVFKITVGRATTENLLNLVDQEERSAAPEPIQPISVIPGSGGEKGSHKYQRSSSSGSDDYAYTQALLLHQRARMERLAKQLKLEKEELERLKSEVNGMEHDLMQRRLRRVSCTTAIPTPEEMTRLRSMNRQLQINVDCTLKEVDLLQSRGNFDPKAMNNFYDNIEPGPVVPPKPSKKDSSDPCTIERKARRISVTSKVQADIHDTQAAAADEHRTGSTQSPRTQPRDEDYEGAPWNCDSCTFLNHPALNRCEQCEMPRYT",–
no binding,"Rluc fusion of TAK-1 (protein, UniProt O43318 1-606) MSTASAASSSSSSSAGEMIEAPSQVLNFEEIDYKEIEVEEVVGRGAFGVVCKAKWRAKDVAIKQIESESERKAFIVELRQLSRVNHPNIVKLYGACLNPVCLVMEYAEGGSLYNVLHGAEPLPYYTAAHAMSWCLQCSQGVAYLHSMQPKALIHRDLKPPNLLLVAGGTVLKICDFGTACDIQTHMTNNKGSAAWMAPEVFEGSNYSEKCDVFSWGIILWEVITRRKPFDEIGGPAFRIMWAVHNGTRPPLIKNLPKPIESLMTRCWSKDPSQRPSMEEIVKIMTHLMRYFPGADEPLQYPCQYSDEGQSNSATSTGSFMDIASTNTSNKSDTNMEQVPATNDTIKRLESKLLKNQAKQQSESGRLSLGASRGSSVESLPPTSEGKRMSADMSEIEARIAATTAYSKPKRGHRKTASFGNILDVPEIVISGNGQPRRRSIQDLTVTGTEPGQVSSRSSSPSVRMITTSGPTSEKPTRSHPWTPDDSTDTNGSDNSIPMAYLTLDHQLQPLAPCPNSKESMAVFEQHCKMAQEYMKVQTEIALLLQRKQELVAELDQDEKDQQNTSRLVQEHKKLLDENKSLSTYYQQCKKQLEVIRSQQQKRQGTS",–
no binding,"Rluc fusion of TAB-2 (protein, UniProt Q9NYJ8 1-693) MAQGSHQIDFQVLHDLRQKFPEVPEVVVSRCMLQNNNNLDACCAVLSQESTRYLYGEGDLNFSDDSGISGLRNHMTSLNLDLQSQNIYHHGREGSRMNGSRTLTHSISDGQLQGGQSNSELFQQEPQTAPAQVPQGFNVFGMSSSSGASNSAPHLGFHLGSKGTSSLSQQTPRFNPIMVTLAPNIQTGRNTPTSLHIHGVPPPVLNSPQGNSIYIRPYITTPGGTTRQTQQHSGWVSQFNPMNPQQVYQPSQPGPWTTCPASNPLSHTSSQQPNQQGHQTSHVYMPISSPTTSQPPTIHSSGSSQSSAHSQYNIQNISTGPRKNQIEIKLEPPQRNNSSKLRSSGPRTSSTSSSVNSQTLNRNQPTVYIAASPPNTDELMSRSQPKVYISANAATGDEQVMRNQPTLFISTNSGASAASRNMSGQVSMGPAFIHHHPPKSRAIGNNSATSPRVVVTQPNTKYTFKITVSPNKPPAVSPGVVSPTFELTNLLNHPDHYVETENIQHLTDPTLAHVDRISETRKLSMGSDDAAYTQALLVHQKARMERLQRELEIQKKKLDKLKSEVNEMENNLTRRRLKRSNSISQIPSLEEMQQLRSCNRQLQIDIDCLTKEIDLFQARGPHFNPSAIHNFYDNIGFVGPVPPKPKDQRSIIKTPKTQDTEDDEGAQWNCTACTFLNHPALIRCEQCEMPRHF",–
no binding,"Rluc fusion of IKK-β (protein, UniProt O14920 1-756) MSWSPSLTTQTCGAWEMKERLGTGGFGNVIRWHNQETGEQIAIKQCRQELSPRNRERWCLEIQIMRRLTHPNVVAARDVPEGMQNLAPNDLPLLAMEYCQGGDLRKYLNQFENCCGLREGAILTLLSDIASALRYLHENRIIHRDLKPENIVLQQGEQRLIHKIIDLGYAKELDQGSLCTSFVGTLQYLAPELLEQQKYTVTVDYWSFGTLAFECITGFRPFLPNWQPVQWHSKVRQKSEVDIVVSEDLNGTVKFSSSLPYPNNLNSVLAERLEKWLQLMLMWHPRQRGTDPTYGPNGCFKALDDILNLKLVHILNMVTGTIHTYPVTEDESLQSLKARIQQDTGIPEEDQELLQEAGLALIPDKPATQCISDGKLNEGHTLDMDLVFLFDNSKITYETQISPRPQPESVSCILQEPKRNLAFFQLRKVWGQVWHSIQTLKEDCNRLQQGQRAAMMNLLRNNSCLSKMKNSMASMSQQLKAKLDFFKTSIQIDLEKYSEQTEFGITSDKLLLAWREMEQAVELCGRENEVKLLVERMMALQTDIVDLQRSPMGRKQGGTLDDLEEQARELYRRLREKPRDQRTEGDSQEMVRLLLQAIQSFEKKVRVIYTQLSKTVVCKQKALELLPKVEEVVSLMNEDEKTVVRLQEKRQKELWNLLKIACSKVRGPVSGSPDSMNASRLSQPGQLMSQPSTASNSLPEPAKKSEELVAEAHNLCTLLENAIQDTVREQDQSFTALDWSWLQTEEEEHSCLEQAS",–
